Results reported in patent US20180087118A1.

Target: T1, H-TKQTARK(Me3)STGGKAPR-OH (TR-15, H3 3-17 K9me3 peptide)
T1 sequence (peptide, K(Me3), trimethyl-lysine at histone H3 K9 (7th residue of the peptide)): TKQTARKSTGGKAPR
Assay: co-crystal structure, 1.87 Å

binding: binds
Substance: Human KDM4B 1-348 (His6-tagged, expressed in E. coli from pET28a) (enzyme)

No constants are given. Whether binding was seen depends on the method and setting. A result given as binding can be weak or reduced; the word gives no strength.
